Patent US20180171012A1
No constants are given. Whether binding was seen depends on the method and setting. Some entries that bind do so weakly or less than the wild type.

Tests used:
[1] = molecular target: TfR existing on the endothelium of blood vessels in the brain of cynomolgus monkeys (printed as hTfR) (cynomolgus monkey (Macaca fascicularis)); assay: immunohistochemical staining of monkey brain after intravenous administration
[2] = molecular target: TfR existing on the endothelium of blood vessels in the brain of cynomolgus monkeys (printed as hTfR) (cynomolgus monkey (Macaca fascicularis)); assay: immunohistochemistry (IgG detection antibody, DAB, hematoxylin) of frozen cerebellum sections of a cynomolgus monkey 8 h after one intravenous dose of 5.0 mg/kg [b]
[3] = molecular target: TfR existing on the endothelium of blood vessels in the brain of cynomolgus monkeys (printed as hTfR) (cynomolgus monkey (Macaca fascicularis)); assay: immunohistochemistry (IgG detection antibody, DAB, hematoxylin) of frozen hippocampus sections of a cynomolgus monkey 8 h after one intravenous dose of 5.0 mg/kg [b]
[4] = molecular target: TfR existing on the endothelium of blood vessels in the brain of cynomolgus monkeys (printed as hTfR) (cynomolgus monkey (Macaca fascicularis)); assay: immunohistochemistry (IgG detection antibody, DAB, hematoxylin) of frozen cerebral cortex sections of a cynomolgus monkey 8 h after one intravenous dose of 5.0 mg/kg [b]
[5] = molecular target: TfR existing on the endothelium of blood vessels in the brain of cynomolgus monkeys (printed as hTfR) (cynomolgus monkey (Macaca fascicularis)); assay: immunohistochemistry (IgG detection antibody, DAB, hematoxylin) of frozen cerebellum sections of a cynomolgus monkey 8 h after one intravenous dose of 5.0 mg/kg [c]
[6] = molecular target: TfR existing on the endothelium of blood vessels in the brain of cynomolgus monkeys (printed as hTfR) (cynomolgus monkey (Macaca fascicularis)); assay: immunohistochemistry (IgG detection antibody, DAB, hematoxylin) of frozen hippocampus sections of a cynomolgus monkey 8 h after one intravenous dose of 5.0 mg/kg [c]
[7] = molecular target: TfR existing on the endothelium of blood vessels in the brain of cynomolgus monkeys (printed as hTfR) (cynomolgus monkey (Macaca fascicularis)); assay: immunohistochemistry (IgG detection antibody, DAB, hematoxylin) of frozen cerebral cortex sections of a cynomolgus monkey 8 h after one intravenous dose of 5.0 mg/kg [c]
[8] = molecular target: recombinant human TfR (r human TfR: Sino Biological Inc.), hTfR extracellular region with N-terminal histidine tag (human) (UniProt P02786); assay: BLI, Octet RED96
[9] = molecular target: recombinant monkey TfR (r monkey TfR: Sino Biological Inc.), cynomolgus monkey TfR extracellular region with N-terminal histidine tag (cynomolgus monkey (Macaca fascicularis)); assay: BLI, Octet RED96

Measured: binding

B1: anti-hTfR antibody No. 1 (antibody, V domains shown)
VH: EVQLQESGGGLVQPGGSLKLSCAASGLTFSNYGMSWIRQTPDKRLELVANINTNGGSTYYPDSVKGRFTISRDNAKNTLYLQMNSLKSEDTAIYYCTNNRYDEDYWGQGTSVTVSS
VL: DIVLTQSSKFMSTSVGDRVSITCKASQDVNSAVAWFQQKPGQSPKLLIYWTSTRHTGVPDRFTGSGSGTVYTLTISSVQAEDLALYYCQQHYSTPRTFGGGTKLEIKR
binds: [1] | [2] | [3] | [4]

B2: anti-hTfR antibody No. 2 (antibody, V domains shown)
VH: EVQLQESGAELVRPGVSVKISCKGSGYTFTDYVMHWVRQSHAKSLEWIGVISTYYGHGSYNQRFKGKATMTVDKSSSTAYLELVRLTSEDSAIYYCVRGGYGSSSLAGNFDVWGAGTTVTVSS
VL: DIVLTQSPATLSVTPGDSVSLSCRASQSISNNLQWYQQKSHESPRLLIKYASQSISGIPSRFSGSGSGTDFTLSINSVETEDFGMYFCQQSNSWPRTFGAGTKLELKR
binds: [1] | [5] | [6] | [7]

B3: humanized anti-hTfR antibody No. 1 (antibody, human IgG1, kappa, V domains shown)
VH: EVQLVESGGGLVQPGGSLRLSCAASGLTFSNYGMSWVRQAPGKGLELVANINTNGGSTYYPDSVKGRFTISRDNAKNSLYLQMNSLRAEDTAVYYCTNNRYDEDYWGQGTLVTVSS
VL: DIQVTQSPSFLSASVGDRVTITCKASQDVNSAVAWFQQKPGKAPKLLIYWTSTRHTGVPDRFSGSGSGTVYTLTISSLQPEDFATYYCQQHYSTPRTFGGGTKVEIKR
binds: [8] | [9]
